Measured values as given in patent US20030028002A1, “Cyclin D binding factor, and uses thereof” (published 2003).
No constants are given. Whether binding was seen depends on the method and setting. Sequences can lack the tags named with a protein.

What was measured:
cyclin A = assay: GST pull-down
cyclin E = assay: GST pull-down

B1: GST-DMP1 fusion protein (GST fused to residues 176-761 of DMP1) (other)
chain: GIKDATEIIFEMSKDERKDFYRTIAWGLNRPLFAVYRRVLRMYDDRNHVGKYTPEEIEKLKELRIKHGNDWATIGAALGRSASSVKDRCRLMKDTCNTGKWTEEEEKRLAEVVHELTSTEPGDIVTQGVSWAAVAERVGTRSEKQCRSKWLNYLNWKQSGGTEWTKEDEINLILRIAELDVADENDINWDLLAEGWSSVRSPQWLRSKWWTIKRQIANHKDVSFPVLIKGLKQLHENQKNNPVLLENKSGSGVPNSNCNSSVQHVQIRVARLEDNTAISPSPMAALQIPVQITHVSSTDSPAASADSETITLNSGTLQTFEILPSFPLQPTGTPGTYLLQTSSSQGLPLTLTTNPTLTLAAAAPASPEQIIVHALSPEHLLNTSDNVTVQCHTPRVIIQTVATEDITSSLSQEELTVDSDLHSSDFPEPPDALEADTFPDEIPRPKMTIQPSFNNAHVSKFSDQNSTELMNSVMVRTEEEIADTDLKQEEPPSDLASAYVTEDLESPTIVHQVHQTIDDETILIVPSPHGFIQASDVIDTESVLPLTTLTDPIFQHHQEASNIIGSSLGSPVSEDSKDVEDLVNCH
notes: Made in bacteria, held on glutathione-Sepharose beads; not shown: glutathione S-transferase encoded by pGEX-3X (Pharmacia)
- binding (cyclin A): no binding
- binding (cyclin E): no binding
